Laboratory results: paper PMC10920344
No constants are given. Whether binding was seen depends on the method and setting. Binding seen in cells or lysates may run through a third protein. Some results given as binding are weak or reduced against the parent protein; the word gives no strength.

The chains behind the UniProt entries cited, without tags or fusion partners.
UniProt P20339: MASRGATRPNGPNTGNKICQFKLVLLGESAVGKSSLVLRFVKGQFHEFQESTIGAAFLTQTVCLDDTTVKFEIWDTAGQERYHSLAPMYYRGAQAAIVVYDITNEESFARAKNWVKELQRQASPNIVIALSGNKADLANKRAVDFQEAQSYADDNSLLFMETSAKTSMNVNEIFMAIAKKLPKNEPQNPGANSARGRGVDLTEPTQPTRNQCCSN

Molecular target: T1, Syntaxin-6 (human (endogenous in MM1S)) (UniProt O43752)
T1 sequence: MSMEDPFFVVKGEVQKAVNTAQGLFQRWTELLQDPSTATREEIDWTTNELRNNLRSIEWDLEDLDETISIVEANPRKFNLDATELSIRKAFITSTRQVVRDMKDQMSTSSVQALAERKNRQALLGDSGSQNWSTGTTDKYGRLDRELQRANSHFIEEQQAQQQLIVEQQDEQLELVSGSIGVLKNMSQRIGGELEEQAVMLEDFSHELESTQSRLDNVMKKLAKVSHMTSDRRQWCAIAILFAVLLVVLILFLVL
Experiment: co-IP; endogenous proteins in whole cell lysates (Dignam buffer) of MM1S cells treated with control (Ctr) or MM-ZC DNA; lysate with primary antibody 4 hr in the cold, then Dynabeads Protein G 2 hr at 4C, five washes with lysis buffer, immunoblot; rabbit IgG as control IP; 3 replicates

Question: With Rab5a (from UniProt P20339 1-215) as the substance, how does the binding read?
Answer: binds
